Results are given in words; binding and its absence hold for the method and conditions named. Binding seen in cells or lysates may run through a third protein. Some results given as binding are weak or reduced against the parent protein; the word gives no strength.

The chains behind the UniProt entries cited, without tags or fusion partners.
UniProt P29350: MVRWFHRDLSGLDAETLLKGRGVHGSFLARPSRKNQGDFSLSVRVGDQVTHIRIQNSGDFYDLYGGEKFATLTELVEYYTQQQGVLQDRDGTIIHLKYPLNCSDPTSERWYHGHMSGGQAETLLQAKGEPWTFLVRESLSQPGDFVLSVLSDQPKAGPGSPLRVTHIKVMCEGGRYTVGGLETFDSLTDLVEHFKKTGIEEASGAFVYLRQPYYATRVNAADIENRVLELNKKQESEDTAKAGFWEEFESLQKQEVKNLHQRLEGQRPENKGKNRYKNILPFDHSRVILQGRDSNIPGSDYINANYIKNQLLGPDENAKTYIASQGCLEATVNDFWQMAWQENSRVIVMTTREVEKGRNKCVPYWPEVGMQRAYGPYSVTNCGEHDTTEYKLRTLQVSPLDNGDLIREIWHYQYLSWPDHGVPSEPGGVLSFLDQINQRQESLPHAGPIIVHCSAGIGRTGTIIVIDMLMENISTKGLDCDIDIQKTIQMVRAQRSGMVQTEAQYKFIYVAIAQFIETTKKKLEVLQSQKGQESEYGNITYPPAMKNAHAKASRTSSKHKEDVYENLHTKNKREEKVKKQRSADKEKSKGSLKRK
UniProt P29351: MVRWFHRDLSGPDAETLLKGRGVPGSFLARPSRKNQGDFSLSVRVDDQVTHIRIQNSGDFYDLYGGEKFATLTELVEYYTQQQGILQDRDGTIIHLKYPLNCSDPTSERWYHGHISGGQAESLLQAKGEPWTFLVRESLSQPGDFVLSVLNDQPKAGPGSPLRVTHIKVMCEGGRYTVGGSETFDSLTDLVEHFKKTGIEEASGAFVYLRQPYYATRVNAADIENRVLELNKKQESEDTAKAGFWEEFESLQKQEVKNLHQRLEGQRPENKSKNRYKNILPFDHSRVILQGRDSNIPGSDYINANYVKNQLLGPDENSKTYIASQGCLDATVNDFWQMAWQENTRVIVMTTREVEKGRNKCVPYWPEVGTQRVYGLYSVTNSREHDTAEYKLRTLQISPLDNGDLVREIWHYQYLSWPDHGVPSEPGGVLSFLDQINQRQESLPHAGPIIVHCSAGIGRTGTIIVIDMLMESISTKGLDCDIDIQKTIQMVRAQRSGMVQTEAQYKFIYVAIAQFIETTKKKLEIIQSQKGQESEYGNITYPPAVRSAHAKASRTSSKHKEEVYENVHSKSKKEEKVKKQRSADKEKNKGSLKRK
UniProt Q9D4F8: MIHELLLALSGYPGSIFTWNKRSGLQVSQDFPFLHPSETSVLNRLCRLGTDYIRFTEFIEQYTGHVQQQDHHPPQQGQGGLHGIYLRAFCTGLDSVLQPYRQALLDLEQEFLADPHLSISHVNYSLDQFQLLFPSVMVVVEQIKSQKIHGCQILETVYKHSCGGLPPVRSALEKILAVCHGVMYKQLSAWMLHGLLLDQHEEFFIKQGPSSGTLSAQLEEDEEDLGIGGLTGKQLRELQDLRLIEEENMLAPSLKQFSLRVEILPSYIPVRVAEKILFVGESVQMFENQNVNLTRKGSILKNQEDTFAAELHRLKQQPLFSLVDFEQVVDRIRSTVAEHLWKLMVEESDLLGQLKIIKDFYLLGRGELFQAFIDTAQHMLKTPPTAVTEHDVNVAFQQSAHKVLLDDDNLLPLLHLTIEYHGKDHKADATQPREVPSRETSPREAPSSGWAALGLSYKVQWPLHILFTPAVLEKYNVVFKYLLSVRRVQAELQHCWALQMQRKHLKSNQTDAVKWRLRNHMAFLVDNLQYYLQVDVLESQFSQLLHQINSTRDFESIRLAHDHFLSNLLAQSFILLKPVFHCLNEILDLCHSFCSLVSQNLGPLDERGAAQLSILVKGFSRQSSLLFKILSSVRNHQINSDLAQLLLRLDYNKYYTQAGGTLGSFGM
UniProt Q921G8: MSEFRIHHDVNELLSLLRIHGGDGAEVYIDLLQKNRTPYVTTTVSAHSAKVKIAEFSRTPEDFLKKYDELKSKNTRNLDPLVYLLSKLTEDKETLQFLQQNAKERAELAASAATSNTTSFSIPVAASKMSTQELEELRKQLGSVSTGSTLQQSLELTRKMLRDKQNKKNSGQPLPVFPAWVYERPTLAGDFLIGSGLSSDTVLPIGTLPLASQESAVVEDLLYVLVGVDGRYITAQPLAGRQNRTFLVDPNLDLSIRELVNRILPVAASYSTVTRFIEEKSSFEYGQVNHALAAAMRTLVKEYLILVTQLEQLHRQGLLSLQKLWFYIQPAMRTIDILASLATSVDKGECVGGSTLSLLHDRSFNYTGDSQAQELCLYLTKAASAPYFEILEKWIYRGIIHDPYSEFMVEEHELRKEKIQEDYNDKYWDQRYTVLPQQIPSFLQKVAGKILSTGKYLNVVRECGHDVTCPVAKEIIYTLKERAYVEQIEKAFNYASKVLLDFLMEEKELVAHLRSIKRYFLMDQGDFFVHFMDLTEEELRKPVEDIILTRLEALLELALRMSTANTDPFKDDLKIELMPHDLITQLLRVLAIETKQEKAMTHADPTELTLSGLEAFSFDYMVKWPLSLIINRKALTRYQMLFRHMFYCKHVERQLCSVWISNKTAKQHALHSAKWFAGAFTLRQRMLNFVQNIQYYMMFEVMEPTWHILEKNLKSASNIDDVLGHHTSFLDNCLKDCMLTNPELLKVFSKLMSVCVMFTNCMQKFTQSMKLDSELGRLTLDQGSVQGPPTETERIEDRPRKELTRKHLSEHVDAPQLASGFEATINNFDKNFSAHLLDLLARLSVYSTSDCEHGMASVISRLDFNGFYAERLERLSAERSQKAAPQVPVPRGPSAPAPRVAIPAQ
UniProt P58854: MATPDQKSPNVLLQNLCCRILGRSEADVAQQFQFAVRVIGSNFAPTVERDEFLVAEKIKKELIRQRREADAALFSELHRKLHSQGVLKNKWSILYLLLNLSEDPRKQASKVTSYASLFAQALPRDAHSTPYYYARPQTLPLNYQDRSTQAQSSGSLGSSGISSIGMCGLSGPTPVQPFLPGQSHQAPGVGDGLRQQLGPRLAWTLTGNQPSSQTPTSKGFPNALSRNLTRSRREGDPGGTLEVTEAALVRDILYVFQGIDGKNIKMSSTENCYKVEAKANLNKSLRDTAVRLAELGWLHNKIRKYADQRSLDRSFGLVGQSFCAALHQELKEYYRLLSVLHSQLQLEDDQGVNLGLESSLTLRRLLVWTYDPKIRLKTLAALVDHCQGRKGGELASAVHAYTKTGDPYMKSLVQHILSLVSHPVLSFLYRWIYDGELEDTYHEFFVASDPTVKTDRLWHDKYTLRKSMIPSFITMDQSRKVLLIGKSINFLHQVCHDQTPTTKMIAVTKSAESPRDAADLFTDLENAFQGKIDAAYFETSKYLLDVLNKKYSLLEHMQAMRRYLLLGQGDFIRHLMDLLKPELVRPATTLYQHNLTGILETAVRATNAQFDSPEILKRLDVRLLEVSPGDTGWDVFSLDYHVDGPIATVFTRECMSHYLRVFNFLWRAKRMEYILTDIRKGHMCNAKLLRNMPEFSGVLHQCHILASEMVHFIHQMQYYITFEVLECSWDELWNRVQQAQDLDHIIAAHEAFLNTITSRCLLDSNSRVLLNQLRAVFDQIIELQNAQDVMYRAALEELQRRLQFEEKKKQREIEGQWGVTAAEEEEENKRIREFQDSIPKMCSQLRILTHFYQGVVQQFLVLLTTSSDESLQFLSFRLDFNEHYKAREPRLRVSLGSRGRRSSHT
UniProt G5E8P0: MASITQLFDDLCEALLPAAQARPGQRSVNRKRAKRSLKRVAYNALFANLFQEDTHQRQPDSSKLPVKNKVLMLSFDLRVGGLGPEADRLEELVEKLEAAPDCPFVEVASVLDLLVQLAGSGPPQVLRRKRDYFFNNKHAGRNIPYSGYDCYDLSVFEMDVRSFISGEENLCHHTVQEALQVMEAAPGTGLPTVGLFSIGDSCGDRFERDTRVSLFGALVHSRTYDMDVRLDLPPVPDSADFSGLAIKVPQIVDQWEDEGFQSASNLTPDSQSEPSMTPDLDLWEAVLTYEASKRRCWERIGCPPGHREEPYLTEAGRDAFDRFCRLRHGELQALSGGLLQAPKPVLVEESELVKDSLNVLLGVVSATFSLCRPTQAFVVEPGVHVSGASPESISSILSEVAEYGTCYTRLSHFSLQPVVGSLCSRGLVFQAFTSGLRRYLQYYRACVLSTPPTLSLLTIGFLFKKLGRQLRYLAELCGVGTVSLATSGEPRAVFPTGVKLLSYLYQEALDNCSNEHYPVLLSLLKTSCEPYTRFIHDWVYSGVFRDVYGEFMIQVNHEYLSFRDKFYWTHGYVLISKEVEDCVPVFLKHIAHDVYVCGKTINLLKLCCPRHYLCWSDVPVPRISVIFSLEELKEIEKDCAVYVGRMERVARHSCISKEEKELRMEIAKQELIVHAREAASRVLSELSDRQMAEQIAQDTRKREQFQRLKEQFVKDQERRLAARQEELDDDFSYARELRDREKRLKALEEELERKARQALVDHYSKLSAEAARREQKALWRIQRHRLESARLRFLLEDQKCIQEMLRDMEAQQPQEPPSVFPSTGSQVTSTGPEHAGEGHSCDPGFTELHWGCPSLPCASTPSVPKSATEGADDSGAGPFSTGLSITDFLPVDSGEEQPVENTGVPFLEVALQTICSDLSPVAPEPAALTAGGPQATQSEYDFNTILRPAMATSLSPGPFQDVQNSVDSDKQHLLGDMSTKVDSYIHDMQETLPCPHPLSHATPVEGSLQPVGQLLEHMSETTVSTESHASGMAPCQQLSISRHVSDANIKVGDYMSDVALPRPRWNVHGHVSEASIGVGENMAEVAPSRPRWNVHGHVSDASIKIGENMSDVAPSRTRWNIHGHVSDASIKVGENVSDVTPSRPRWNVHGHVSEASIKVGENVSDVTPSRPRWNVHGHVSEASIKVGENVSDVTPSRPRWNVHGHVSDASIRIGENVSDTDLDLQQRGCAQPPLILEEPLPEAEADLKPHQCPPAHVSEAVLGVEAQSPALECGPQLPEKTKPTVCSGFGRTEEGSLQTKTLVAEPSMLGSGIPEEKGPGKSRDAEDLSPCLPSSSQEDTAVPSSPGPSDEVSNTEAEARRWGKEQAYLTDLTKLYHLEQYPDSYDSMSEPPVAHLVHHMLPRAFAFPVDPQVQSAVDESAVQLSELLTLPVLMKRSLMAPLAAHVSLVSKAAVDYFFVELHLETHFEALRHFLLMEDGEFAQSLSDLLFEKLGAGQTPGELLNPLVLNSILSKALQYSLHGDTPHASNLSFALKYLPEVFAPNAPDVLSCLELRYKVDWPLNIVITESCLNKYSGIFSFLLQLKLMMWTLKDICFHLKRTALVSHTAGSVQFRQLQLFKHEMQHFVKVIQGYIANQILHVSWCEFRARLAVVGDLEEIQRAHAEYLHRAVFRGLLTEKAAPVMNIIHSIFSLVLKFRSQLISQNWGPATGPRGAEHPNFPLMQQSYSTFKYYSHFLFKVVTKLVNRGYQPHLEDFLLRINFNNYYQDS
UniProt Q9UGJ1: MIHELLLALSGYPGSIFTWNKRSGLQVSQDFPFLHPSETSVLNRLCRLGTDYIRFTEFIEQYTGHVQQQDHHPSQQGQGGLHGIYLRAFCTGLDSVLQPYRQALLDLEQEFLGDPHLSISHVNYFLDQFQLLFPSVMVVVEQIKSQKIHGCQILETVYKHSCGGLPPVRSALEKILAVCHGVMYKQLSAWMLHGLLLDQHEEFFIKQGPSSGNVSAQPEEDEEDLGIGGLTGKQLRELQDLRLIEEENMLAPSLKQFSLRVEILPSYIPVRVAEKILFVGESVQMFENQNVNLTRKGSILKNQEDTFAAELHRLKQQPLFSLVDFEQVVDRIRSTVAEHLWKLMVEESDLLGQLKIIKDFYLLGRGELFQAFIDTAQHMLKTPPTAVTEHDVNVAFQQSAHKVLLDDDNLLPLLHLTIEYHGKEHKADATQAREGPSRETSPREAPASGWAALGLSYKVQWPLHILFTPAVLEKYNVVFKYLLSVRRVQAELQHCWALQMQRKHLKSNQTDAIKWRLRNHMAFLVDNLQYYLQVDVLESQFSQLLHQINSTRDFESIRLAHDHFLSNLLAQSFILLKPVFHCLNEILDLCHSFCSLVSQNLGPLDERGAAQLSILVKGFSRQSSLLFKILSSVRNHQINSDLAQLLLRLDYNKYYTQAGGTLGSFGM

This passage reports binding results from article PMC6523986.

Experiment [1] concerns the target SHP-1 (MCF7 cells) (human (endogenous in MCF7)) (UniProt P29350). Put plainly: co-IP; MCF7 extracts precipitated with antibody to SHP-1 or to γ-tubulin, immunoblot. In general terms: Immunoblotting shows a protein as a band on a membrane.
The target of experiment [2] is Src homology 2 (SH2) domain-containing protein tyrosine phosphatase 1 (SHP-1; Ptpn6) (mouse (endogenous in BMMCs)) (UniProt P29351). Put plainly: co-IP; BMMC extracts (HEPES buffer with 1% NP-40, protease inhibitors) incubated with antibodies immobilised on protein A or protein G beads, immunoblot; in Figure 9B cells nonactivated or antigen-activated (3 min, 10 min).

Experiment [3] concerns the target GCP4 (γ-tubulin complex protein 4; BMMCs) (mouse (endogenous in BMMCs)) (UniProt Q9D4F8). Described as above.
Experiment [4] addresses GCP2 (γ-tubulin complex protein 2; BMMCs) (mouse (endogenous in BMMCs)) (UniProt Q921G8). Described as above.

“GCP2 (MCF7 cells) (from UniProt Q9BSJ2 1-902)”: the binding entry in experiment [1] was “binds”.

As to “GCP2 (γ-tubulin complex protein 2; BMMCs) (from UniProt Q921G8 1-905)”, the binding result in experiment [2] and in experiment [3] was “binds” throughout.

Turning to “GCP3 (γ-tubulin complex protein 3; BMMCs) (from UniProt P58854 1-905)”, the binding entry in experiment [2] is “binds”.

For the substance “GCP4 (γ-tubulin complex protein 4; BMMCs) (from UniProt Q9D4F8 1-667)”, the binding entry in experiment [2] and in experiment [4] was “binds” each time.

Regarding “GCP5 (γ-tubulin complex protein 5; BMMCs) (from UniProt Q8BKN5 1-1024)”, in experiment [2], the binding entry is listed as “binds”.

Consider “GCP6 (γ-tubulin complex protein 6; BMMCs) (from UniProt G5E8P0 1-1769)”, for which the binding result in experiment [2] is “binds”.

Regarding “GCP-4 (MCF7 cells) (from UniProt Q9UGJ1 1-667)”, in experiment [1], the binding result is “binds”.

On to “Src homology 2 (SH2) domain-containing protein tyrosine phosphatase 1 (SHP-1; Ptpn6) (from UniProt P29351 1-595) (enzyme)”, for which the binding entry in experiment [3] and in experiment [4] was “binds” each time.
